# Screening data, single-dose tests

Amino acid sequences for entries named in this document (tags omitted). Residues count along the entry.
UniProt A4I591, 1-473: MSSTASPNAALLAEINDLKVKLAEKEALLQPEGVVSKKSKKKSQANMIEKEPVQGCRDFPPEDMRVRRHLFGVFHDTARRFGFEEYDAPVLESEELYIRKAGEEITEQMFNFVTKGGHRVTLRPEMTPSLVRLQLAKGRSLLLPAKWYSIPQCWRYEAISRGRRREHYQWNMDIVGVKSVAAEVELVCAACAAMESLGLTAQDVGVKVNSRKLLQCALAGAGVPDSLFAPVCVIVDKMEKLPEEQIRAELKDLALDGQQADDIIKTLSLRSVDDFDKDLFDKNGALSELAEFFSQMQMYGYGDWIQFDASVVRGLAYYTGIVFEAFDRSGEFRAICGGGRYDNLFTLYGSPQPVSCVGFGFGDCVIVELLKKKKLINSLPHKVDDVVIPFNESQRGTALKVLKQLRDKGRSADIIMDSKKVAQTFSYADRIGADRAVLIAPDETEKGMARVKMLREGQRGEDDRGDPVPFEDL
UniProt I6X8D2, whole entry: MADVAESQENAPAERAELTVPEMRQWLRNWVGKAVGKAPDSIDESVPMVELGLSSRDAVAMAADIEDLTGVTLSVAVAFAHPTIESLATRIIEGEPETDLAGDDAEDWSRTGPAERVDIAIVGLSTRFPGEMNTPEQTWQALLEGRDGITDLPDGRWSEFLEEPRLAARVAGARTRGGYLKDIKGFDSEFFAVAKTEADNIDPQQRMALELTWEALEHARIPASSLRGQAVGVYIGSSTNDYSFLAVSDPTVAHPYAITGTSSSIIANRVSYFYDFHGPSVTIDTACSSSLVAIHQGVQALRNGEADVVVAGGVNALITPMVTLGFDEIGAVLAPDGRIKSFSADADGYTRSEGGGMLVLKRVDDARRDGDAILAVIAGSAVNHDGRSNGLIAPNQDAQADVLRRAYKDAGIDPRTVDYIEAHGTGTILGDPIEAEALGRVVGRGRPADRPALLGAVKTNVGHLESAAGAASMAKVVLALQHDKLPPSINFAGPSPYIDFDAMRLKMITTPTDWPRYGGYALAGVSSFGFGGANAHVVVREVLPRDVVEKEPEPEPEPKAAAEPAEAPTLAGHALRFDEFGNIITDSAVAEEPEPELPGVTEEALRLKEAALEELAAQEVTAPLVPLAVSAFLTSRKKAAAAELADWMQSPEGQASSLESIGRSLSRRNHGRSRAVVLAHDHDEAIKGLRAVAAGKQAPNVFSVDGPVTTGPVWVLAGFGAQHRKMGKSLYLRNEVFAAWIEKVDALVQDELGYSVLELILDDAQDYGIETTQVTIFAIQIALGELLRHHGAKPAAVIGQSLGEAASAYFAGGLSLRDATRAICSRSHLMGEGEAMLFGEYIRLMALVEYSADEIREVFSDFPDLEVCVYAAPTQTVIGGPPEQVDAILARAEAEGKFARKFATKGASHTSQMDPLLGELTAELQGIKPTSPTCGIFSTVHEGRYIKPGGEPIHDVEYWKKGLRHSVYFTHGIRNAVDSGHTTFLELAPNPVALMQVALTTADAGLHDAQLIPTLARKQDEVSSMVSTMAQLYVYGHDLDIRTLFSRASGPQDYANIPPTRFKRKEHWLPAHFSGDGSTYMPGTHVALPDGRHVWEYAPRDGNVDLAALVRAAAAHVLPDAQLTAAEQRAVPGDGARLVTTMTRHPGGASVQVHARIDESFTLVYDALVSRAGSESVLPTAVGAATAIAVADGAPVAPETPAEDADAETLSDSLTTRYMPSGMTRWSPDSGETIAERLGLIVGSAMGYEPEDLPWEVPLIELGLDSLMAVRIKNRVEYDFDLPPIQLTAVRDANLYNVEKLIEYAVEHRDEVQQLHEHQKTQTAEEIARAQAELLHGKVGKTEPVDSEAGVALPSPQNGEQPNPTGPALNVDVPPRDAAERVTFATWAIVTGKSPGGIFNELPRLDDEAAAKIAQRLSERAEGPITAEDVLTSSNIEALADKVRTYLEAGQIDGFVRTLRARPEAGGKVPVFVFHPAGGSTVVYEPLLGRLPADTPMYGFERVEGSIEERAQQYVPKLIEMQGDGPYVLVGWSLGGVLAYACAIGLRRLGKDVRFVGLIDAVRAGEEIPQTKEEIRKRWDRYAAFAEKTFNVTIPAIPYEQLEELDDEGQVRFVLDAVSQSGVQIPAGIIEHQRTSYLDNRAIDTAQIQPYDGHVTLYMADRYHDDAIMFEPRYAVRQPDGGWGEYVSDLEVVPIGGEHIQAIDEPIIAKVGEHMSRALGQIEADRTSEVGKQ

A: 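Histidine-tRNA ligase, Leishmania infantum (UniProt A4I591). Enzyme assay of histidyl-tRNA synthetase; the read-out is not stated. Tested at 30 µM. The record gives no direction; compounds that gave an IC50 in retests scored well above the rest, so higher reads as stronger inhibition. The assay is labelled LdHisRS but filed under L. infantum. Of about 69,000 compounds tested this way, about 410 (0.6%) reached 50% or more in at least one test.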
B: 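Polyketide synthase Pks13, Mycobacterium tuberculosis (UniProt I6X8D2). Enzyme assay of the thioesterase domain of polyketide synthase 13; the read-out is not stated. Concentration: 30 µM. The record gives no direction; the compounds picked for IC50 retests had high values, so higher reads as stronger inhibition. Of about 67,000 compounds tested this way, about 300 (0.46%) reached 50% or more in at least one test.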
C: 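Cell assay of Leishmania donovani living inside macrophages; the read-out is not stated. Compounds at 30 µM. Higher reads as stronger inhibition (inferred: compounds with an IC50 in retests scored well above the rest). Of about 69,000 compounds tested this way, about 1,000 (1.5%) reached 50% or more in at least one test.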

Values are the deposited “Percent Effect”, in %. The controls that fix the scale are not given in the record; negative values are as filed. This is an unselected part of the compounds tested. Two or more numbers in one place are separate tests of the same structure; such repeats can differ widely.

- Cc1nc2ccc(S(=O)(=O)Nc3c(C)nn(CC(=O)O)c3C)cc2s1 | A: 40.48%; B: -1.85%; C: -9.195%
- Cc1cc(C[C@@H]2COC[C@H]2NCc2ccc(C)c(C)c2)on1 | A: 8%; B: -7.211%
- COc1ccccc1CN1C(=O)O[C@@H]2CN(Cc3cccc(C)n3)C[C@@H]21 | A: -1.667%; B: 4.295%
- COc1c(CNC(C)C(=O)NC2CCCC2)c(C(C)C)nn1C (stereo not shown) | A: 14.71%; B: -4.464%; C: 2.904%
- CC(=O)NCCNC(=O)Nc1cccc(Cl)c1SC(F)F | A: 9.589%; B: 15.29%; C: 17.25%
- COc1ccc(C(=O)N2C[C@@H](CN3CCCC3)[C@@H](CO)C2)c(C)c1 | A: 13.89%; B: 8.028%; C: -2.049%
- COc1ccc(Oc2nccnc2C2CCN(C(C)=O)CC2)cc1 | A: 17.71%; B: -3.095%; C: 16.29%
- CC(C)c1nc(C2CCCN2c2cnc3ccccc3n2)no1 (stereo not shown) | A: 8.219%; B: 11.46%; C: -32.64%
- COc1cc(-n2cccc2)c(Cl)cc1C(=O)NS(C)(=O)=O | A: 14.46%; B: -3.574%; C: 31.34%
- CC(C)CCNC(=O)c1ccc(-c2ccco2)[nH]c1=O | A: 21.05%; B: -41.58%; C: 6.81%
- O=C(O)C(F)(F)F.[H][C@]12C[C@H](C(=O)NC)N(S(C)(=O)=O)[C@@]1([H])CN(Cc1csc(C)n1)C2 | C: 35.14%
- CC(C)C(=O)N1CCN(c2cc(N(C)C)cnn2)CC1 | A: 1.739%; B: -25.1%; C: 27.46% & -0.06917%
- Cc1ccc(C(NC(=O)Cn2cc(C3CC3)nn2)C2CC2)cc1 (stereo not shown) | A: 22.22%; B: -40.67%; C: 1.933%
- COc1ccc(C(=O)N2CC(=O)N(CC3CC3)CC(O)C2)cc1 (stereo not shown) | A: 16.33%; B: 7.777%; C: 2.073%
- CC(C)(C)c1n[nH]c(C2CN(CCNC3CCCCC3)CCO2)n1 (stereo not shown) | A: 8.571%; B: -42.31%; C: 23.45%
- COCCN1CCC(c2cncc(-c3ccccc3C)n2)CC1 | A: 15.62%; B: -9.857%; C: 9.847%
- CC(=O)c1cn(CCC(=O)Nc2c3c(nn2C)CSC3)c2ccccc12 | A: 25.27%; B: -4.767%; C: -33.79%
- Cc1ccc(CNC(=O)CN(CCC(N)=O)c2ccc(F)cc2)cc1 | A: 21.74%; B: 0.3505%; C: 17.98%
- CCOC(=O)c1ccc(N2CCN(Cc3c(C)nn(C)c3Cl)CC2)nc1 | A: 9.211%; B: -15.92%; C: 16.79%
- COc1ccccc1OC1CN(c2ccncc2)C1 | A: 19.54%; B: -33.67%; C: 29.79%
- Cc1ccc(C(CNCc2ccncc2)N2CCOCC2)s1 (stereo not shown) | A: 0%; B: -12%; C: 8.889%
- Cc1nc(C)c(C(=O)NCCNc2ncccn2)s1 | A: 13.16%; B: -5.422%; C: 10.35%
- Cc1cc(NC(=O)N2CCOC(C(N)=O)C2)ccc1Br (stereo not shown) | A: 11.7%; B: 3.648%; C: -22.49%
- Cn1cc(-c2cc(-c3cnn(C)c3)n(CC(=O)NC3CC3)n2)cn1 | A: 2.381%; B: -3.192%; C: -1.984%
- COC(=O)c1ccccc1NC(=O)c1nc2ccccc2n(C)c1=O | A: 18.45%; B: -16.26%; C: 26.95%
- COc1ccc(Cl)cc1CN1CC(n2cccn2)C1 | A: -0.8403%; B: -21.86%; C: 17.56%
- CO[C@@H]1CCN(C2CCOCC2)C[C@@H]1Cc1ccccc1 | A: 11.65%; B: -70.6%
- Cc1cc(C(=O)NCc2cnn(C)c2C)nc(N2CCCCCC2)n1 | A: 26.79%; B: -13.89%; C: 28.26%

From ChEMBL document CHEMBL3988442, “University of Dundee, Small-Polar-MMV Screening Library” (2021).